# Measurements as given in PMC5996148.
# By UniProt entry, the sequences of proteins in these tests, tags left out. Where a name states a change or a piece, a line headed by the entry shows the natural chain unless it says otherwise.
# UniProt O00139: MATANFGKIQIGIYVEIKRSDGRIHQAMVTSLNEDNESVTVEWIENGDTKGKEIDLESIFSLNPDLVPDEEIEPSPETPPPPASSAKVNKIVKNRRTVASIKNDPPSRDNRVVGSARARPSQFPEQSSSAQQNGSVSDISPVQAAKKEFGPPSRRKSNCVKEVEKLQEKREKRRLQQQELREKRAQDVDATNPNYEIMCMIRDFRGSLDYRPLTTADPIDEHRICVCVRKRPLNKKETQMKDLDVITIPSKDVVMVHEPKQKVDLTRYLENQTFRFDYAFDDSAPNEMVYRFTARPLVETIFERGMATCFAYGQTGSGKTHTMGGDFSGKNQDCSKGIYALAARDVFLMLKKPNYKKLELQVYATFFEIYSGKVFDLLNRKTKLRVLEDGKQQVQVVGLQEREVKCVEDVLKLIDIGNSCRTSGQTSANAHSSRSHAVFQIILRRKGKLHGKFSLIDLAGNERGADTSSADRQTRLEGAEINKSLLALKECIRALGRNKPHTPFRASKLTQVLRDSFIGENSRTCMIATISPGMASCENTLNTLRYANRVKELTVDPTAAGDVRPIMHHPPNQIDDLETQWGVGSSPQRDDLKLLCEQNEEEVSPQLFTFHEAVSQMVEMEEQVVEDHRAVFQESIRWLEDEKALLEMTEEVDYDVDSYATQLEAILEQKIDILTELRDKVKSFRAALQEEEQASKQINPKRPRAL
# Some of the results follow. For some of these results: The exact form of the protein is not confirmed.
# Tests used:
# Assay in all cases: protein microarray (ProtoArray v5.0), streptavidin-Alexa Fluor 647
# Settings in all cases: 3'-biotin; 20 mM Tris (pH 7.5), 5 mM MgCl2, 100 mM KCl, 0.1% Tween-20, A/T-rich and random oligonucleotide blockers; temperature not stated; high values mean tight binding
# KIAA0562 (human) = system: KIAA0562 (human)
# KIAA0652 (human) = system: KIAA0652 (human)
# KIAA1143 (human) = system: KIAA1143 (human)
# KIAA1576 (human) = system: KIAA1576 (human)
# KIAA1598 (human) = system: KIAA1598 (human)
# KIAA1609 (human) = system: KIAA1609 (human)
# KIAA1754 (human) = system: KIAA1754 (human)
# KIF2A = KIF2A (UniProt O00139)
# KIFC3 (human) = system: KIFC3 (human)
# KIR2DL3 (human) = system: KIR2DL3 (human)
sequence,measurement,setting,value
GGTGACAGGGGTATGGGGAGGGG [G4-2 biotinylated (Ct1)],binding signal,KIAA0562 (human),-0.37 z-score
same,binding signal,KIAA0652 (human),-0.363 z-score
same,binding signal,KIAA1143 (human),-0.403 z-score
same,binding signal,KIAA1576 (human),-0.389 z-score
same,binding signal,KIAA1598 (human),-0.394 z-score
same,binding signal,KIAA1609 (human),-0.387 z-score
same,binding signal,KIAA1754 (human),-0.372 z-score
same,binding signal,KIF2A,3.13 z-score
same,binding signal,KIFC3 (human),-0.388 z-score
same,binding signal,KIR2DL3 (human),-0.379 z-score
